Test results reported in PMC7819943, “Rice protein-binding microarrays: a tool to detect cis-acting elements near promoter regions in rice”.
The other results are listed elsewhere or left out.

Protein sequences, listed by entry. Tags and fused reporters are not part of them.
UniProt Q0JBA9, entry or part of it: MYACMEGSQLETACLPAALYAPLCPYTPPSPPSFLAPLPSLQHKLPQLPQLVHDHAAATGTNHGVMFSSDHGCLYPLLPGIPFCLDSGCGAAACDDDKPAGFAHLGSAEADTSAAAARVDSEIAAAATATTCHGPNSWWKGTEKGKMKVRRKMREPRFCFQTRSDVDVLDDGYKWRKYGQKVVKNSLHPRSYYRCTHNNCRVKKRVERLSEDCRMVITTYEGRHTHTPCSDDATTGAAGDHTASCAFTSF

molecular target: OsWRKY34 (Oryza sativa, UniProt Q0JBA9 1-250); experiment: protein-binding microarray (RPBM); PBS, 2% BSA, 51.3 ng/ul salmon testes DNA, 50 uM zinc acetate, 200 nM TF, 25 C, 1 h; high values mean tight binding; conditions: protein: recombinant; tags: N-terminal polyhistidine and DsRed monomer fusion (pET32a); label: CyDye5-dUTP incorporated in the synthesized complementary strand; 3' TTTTT single-stranded linker to array surface; dsDNA, one strand shown
Procedure, shortened: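 A custom Agilent array was converted to double-stranded form by primer extension with Cy5-dUTP and blocked with 2% BSA. Protein at 200 nM in PBS with 2% BSA, salmon testes DNA and 50 µM zinc acetate was applied for 1 h at 25 °C, followed by washing. The proteins were polyhistidine–DsRed N-terminal fusions of transcription factors, expressed in E. coli BL21-CodonPlus and Ni–NTA-purified. The binding signal is per-feature fluorescence intensity (arbitrary units) from an Axon 4000B scanner.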

Row | Sequence | binding signal
1 | TTGTGGCAATGGCGGCGGTGGCGGTGGCGGTTGGGGTGGCCGGAGTCACCTAGTGCAG | 11500 fluorescence intensity (a.u.)
2 | CCACCGCCGTTAGCTTCGCCGCACCACATAGCACCCCGGCCGGAGTCACCTAGTGCAG | 8850 fluorescence intensity (a.u.)
3 | ATGCTCAAACTAAGCTCACACCGCACTTCACATATACTCACGGAGTCACCTAGTGCAG | 8420 fluorescence intensity (a.u.)
4 | GAAATTTCCTTCCTTGTTTCTCAGCGCATGTTTAAATAGCCGGAGTCACCTAGTGCAG | 10100 fluorescence intensity (a.u.)
5 | CTTTATTAACGGTGTGGGGACTGGGGATTGGCTGAGGACGCGGAGTCACCTAGTGCAG | 8900 fluorescence intensity (a.u.)
6 | ACGCCTACCACACTACTACCACATTTCATCGATCCATCAGCGGAGTCACCTAGTGCAG | 13300 fluorescence intensity (a.u.)
7 | CTCTCTTCTCCGGCGTCCATAAATACCAGCGCCACCCTCCCGGAGTCACCTAGTGCAG | 8920 fluorescence intensity (a.u.)
8 | CTTTCTCCTACCCAAATCCATCCACCCAACATCTTTTTTCCGGAGTCACCTAGTGCAG | 9550 fluorescence intensity (a.u.)
9 | TTGATATTTATTTTCCCTGGCGGTTGTTAGGTTTTCGCATCGGAGTCACCTAGTGCAG | 8240 fluorescence intensity (a.u.)
10 | ACACTCTTTTTTTTCACTGAACCGAACCATTATCTGCCAACGGAGTCACCTAGTGCAG | 9640 fluorescence intensity (a.u.)
11 | TTGCCGCCACCTCCTCCTCGCGACACCGCTCGCCGTCGGTCGGAGTCACCTAGTGCAG | 8750 fluorescence intensity (a.u.)
12 | TATTTGACGCCGTTGATTTTTTTAAATATGTTTGACCGTTCGGAGTCACCTAGTGCAG | 11000 fluorescence intensity (a.u.)
13 | AAGGGCAGAGGAGAGGAGTTGCAGTGTGGTGTGTGGCATGCGGAGTCACCTAGTGCAG | 8870 fluorescence intensity (a.u.)
14 | GCCAGCTTGTCCTCACATGAACAGTTAGTCAACCCCAACACGGAGTCACCTAGTGCAG | 9300 fluorescence intensity (a.u.)
15 | ACTCTTCTTTTAATCAGCTTTGCTAATCCAGCCTGGAAGACGGAGTCACCTAGTGCAG | 9220 fluorescence intensity (a.u.)
16 | TAGTTATTCCGCTATTGTACCTGCTCTTACCTCTCCCTAACGGAGTCACCTAGTGCAG | 11500 fluorescence intensity (a.u.)
17 | CCGTACCATGAGTTGTCCTGCTGTGCATATAAAACTGCCACGGAGTCACCTAGTGCAG | 8400 fluorescence intensity (a.u.)
18 | TTGTAGGGTGGGGTTCACTGGACGTTGGAAAAAGTACGAACGGAGTCACCTAGTGCAG | 10800 fluorescence intensity (a.u.)
19 | TGTTGCTGTGTCGTGTGGTCGTGACTCGTGTGACTCGGTGCGGAGTCACCTAGTGCAG | 8870 fluorescence intensity (a.u.)
20 | TACACACAACTTTTCAGTCACATCGTACCAATTTCAACCCCGGAGTCACCTAGTGCAG | 8380 fluorescence intensity (a.u.)
21 | ACGTTTTTCATATTCCTGTGTTTTTCCTATCCTGCGTTTCCGGAGTCACCTAGTGCAG | 10900 fluorescence intensity (a.u.)
22 | ATTTTAGTCACCTTGTCTCCTATAAAATCCTCACCTTTTCCGGAGTCACCTAGTGCAG | 9660 fluorescence intensity (a.u.)
23 | AGTCAATTCCCGTGTTCCACTTCACCCTTTTCCGGTCGTCCGGAGTCACCTAGTGCAG | 10700 fluorescence intensity (a.u.)
24 | ATCCACTACCCCAACTACATCGATCGATCACCGCATTTTCCGGAGTCACCTAGTGCAG | 10000 fluorescence intensity (a.u.)
25 | CTCTTAGCGGTTTTGTCTGATGTGGTGGCTGAGTCATCGTCGGAGTCACCTAGTGCAG | 9520 fluorescence intensity (a.u.)
26 | GATTGGCACTAAAATTCTGTTTAGACTACCGTTTGGTTTTCGGAGTCACCTAGTGCAG | 8320 fluorescence intensity (a.u.)
27 | ACTGATTTGTTTGAGTCAAACCTATTGTTCATATATGCCACGGAGTCACCTAGTGCAG | 8730 fluorescence intensity (a.u.)

15 entries from above, as a markdown table:

| Row | Sequence | binding signal |
| --- | --- | --- |
| 9 | TTGATATTTATTTTCCCTGGCGGTTGTTAGGTTTTCGCATCGGAGTCACCTAGTGCAG | 8240 fluorescence intensity (a.u.) |
| 10 | ACACTCTTTTTTTTCACTGAACCGAACCATTATCTGCCAACGGAGTCACCTAGTGCAG | 9640 fluorescence intensity (a.u.) |
| 11 | TTGCCGCCACCTCCTCCTCGCGACACCGCTCGCCGTCGGTCGGAGTCACCTAGTGCAG | 8750 fluorescence intensity (a.u.) |
| 12 | TATTTGACGCCGTTGATTTTTTTAAATATGTTTGACCGTTCGGAGTCACCTAGTGCAG | 11000 fluorescence intensity (a.u.) |
| 13 | AAGGGCAGAGGAGAGGAGTTGCAGTGTGGTGTGTGGCATGCGGAGTCACCTAGTGCAG | 8870 fluorescence intensity (a.u.) |
| 14 | GCCAGCTTGTCCTCACATGAACAGTTAGTCAACCCCAACACGGAGTCACCTAGTGCAG | 9300 fluorescence intensity (a.u.) |
| 15 | ACTCTTCTTTTAATCAGCTTTGCTAATCCAGCCTGGAAGACGGAGTCACCTAGTGCAG | 9220 fluorescence intensity (a.u.) |
| 16 | TAGTTATTCCGCTATTGTACCTGCTCTTACCTCTCCCTAACGGAGTCACCTAGTGCAG | 11500 fluorescence intensity (a.u.) |
| 17 | CCGTACCATGAGTTGTCCTGCTGTGCATATAAAACTGCCACGGAGTCACCTAGTGCAG | 8400 fluorescence intensity (a.u.) |
| 18 | TTGTAGGGTGGGGTTCACTGGACGTTGGAAAAAGTACGAACGGAGTCACCTAGTGCAG | 10800 fluorescence intensity (a.u.) |
| 19 | TGTTGCTGTGTCGTGTGGTCGTGACTCGTGTGACTCGGTGCGGAGTCACCTAGTGCAG | 8870 fluorescence intensity (a.u.) |
| 20 | TACACACAACTTTTCAGTCACATCGTACCAATTTCAACCCCGGAGTCACCTAGTGCAG | 8380 fluorescence intensity (a.u.) |
| 21 | ACGTTTTTCATATTCCTGTGTTTTTCCTATCCTGCGTTTCCGGAGTCACCTAGTGCAG | 10900 fluorescence intensity (a.u.) |
| 22 | ATTTTAGTCACCTTGTCTCCTATAAAATCCTCACCTTTTCCGGAGTCACCTAGTGCAG | 9660 fluorescence intensity (a.u.) |
| 23 | AGTCAATTCCCGTGTTCCACTTCACCCTTTTCCGGTCGTCCGGAGTCACCTAGTGCAG | 10700 fluorescence intensity (a.u.) |

The list goes on.

Row | Sequence | binding signal
28 | GCTACTACACCCTGGTCTGGTTGGTTTTCTGTGCGGCGCCCGGAGTCACCTAGTGCAG | 10100 fluorescence intensity (a.u.)
29 | TCAGGGCCGTGATCACGCAGACGTCTCTATTTGGGGTTTTCGGAGTCACCTAGTGCAG | 8760 fluorescence intensity (a.u.)
30 | GCTCGGGGCAGGGGCGGACGCTCAAGGGCCGGGACCTCCGCGGAGTCACCTAGTGCAG | 8440 fluorescence intensity (a.u.)
31 | ATATTCCGGAGGACTTCGCTTGTTTGTCTACCACACGGCCCGGAGTCACCTAGTGCAG | 9190 fluorescence intensity (a.u.)
32 | AATGGCATTGACCAGAGTTAACTATTGCCGTTTGTTGGTTCGGAGTCACCTAGTGCAG | 8590 fluorescence intensity (a.u.)
33 | AGCCTGCTCCGTTTTCCGTGCCAAAAGGATTATTTCCCGTCGGAGTCACCTAGTGCAG | 8130 fluorescence intensity (a.u.)
34 | GCGCTTAACTTTGATCGTCTGTCTTATTTAAATTTTTTTTCGGAGTCACCTAGTGCAG | 11300 fluorescence intensity (a.u.)
35 | TTTTAAACATGTTTGACCGTTCGTCTTATTCAAAAAATTTCGGAGTCACCTAGTGCAG | 8310 fluorescence intensity (a.u.)
36 | CAACCACCACCACCACCATGCGCCGCGGCCGCCGCCGATGCGGAGTCACCTAGTGCAG | 8840 fluorescence intensity (a.u.)
37 | GGACACACACCCACACGCGCATCCATCCATCCATCCATCCCGGAGTCACCTAGTGCAG | 11500 fluorescence intensity (a.u.)
38 | TCTTGTGTAGCTGCTCTGGCCGAATCTCGTAGTTATTAGACGGAGTCACCTAGTGCAG | 8630 fluorescence intensity (a.u.)
39 | CGTCACCAATCCGTGGCAACTCCCTCGCACCCCGATCCCACGGAGTCACCTAGTGCAG | 8110 fluorescence intensity (a.u.)
40 | ACAGCCTTTATCTTCCTCTTTTCTTCCTCGCTTGTGGCCCCGGAGTCACCTAGTGCAG | 9360 fluorescence intensity (a.u.)
41 | GGTGTGGGGCCCACCTGCAGCCTCACATCGGCACCAGCTGCGGAGTCACCTAGTGCAG | 18600 fluorescence intensity (a.u.)
42 | AACGTGTGTGTGTTTTTTATTACATAGGGCTCGGGGTCTACGGAGTCACCTAGTGCAG | 9320 fluorescence intensity (a.u.)
43 | GCCTGCTTCTCATCCTCCGCCGTCTCATGGGCCTCGTCCCCGGAGTCACCTAGTGCAG | 12200 fluorescence intensity (a.u.)
44 | CCTCATCTTGTCTTTCTCGACCTTAGCATTAACTCTCTCTCGGAGTCACCTAGTGCAG | 8360 fluorescence intensity (a.u.)
45 | ACGCGTCCATGTCCATCCCGACTATAAAATCCACCACGCGCGGAGTCACCTAGTGCAG | 9920 fluorescence intensity (a.u.)
46 | GTTCTTCTGCCTTGTCGGAAACTGCCTCCATTTCTTCACTCGGAGTCACCTAGTGCAG | 9150 fluorescence intensity (a.u.)
47 | CGACACTCTTACGTTGTATATCGTGCAACAGCAACTTTTTCGGAGTCACCTAGTGCAG | 8810 fluorescence intensity (a.u.)
48 | CATTTGTAGACCAATTATTTTTCATACTTTCAGCACGTTTCGGAGTCACCTAGTGCAG | 8120 fluorescence intensity (a.u.)
49 | CCCTCGGTCGCCGTTCGCCCTGGCCCGCCTGCGCCGCGCACGGAGTCACCTAGTGCAG | 8520 fluorescence intensity (a.u.)
50 | TACTTCCTCAGCTCTGTTCTCTTTGCCATTTGGAACATTACGGAGTCACCTAGTGCAG | 11100 fluorescence intensity (a.u.)
51 | AATTGACTTTTTTATGCTAATTTTCCCTCTAATTACTTGTCGGAGTCACCTAGTGCAG | 18400 fluorescence intensity (a.u.)
52 | ATACTTAGCTCATTTTTACCGGATAGTCCCCTTACTTATGCGGAGTCACCTAGTGCAG | 8170 fluorescence intensity (a.u.)
53 | ACGCCGCCGTTGCACTTCTCTGCACGCCATTGATCCGATCCGGAGTCACCTAGTGCAG | 8480 fluorescence intensity (a.u.)
54 | CCTTTGTGAAACTTGCAACTTTACAGTCCATTGTACGACTCGGAGTCACCTAGTGCAG | 8430 fluorescence intensity (a.u.)
